From patent EP0617893B1, “Molluscicides” (SHELL INTE[…] […] B.V., priority 1993, dated 1994)

system: Deroceras reticulatum; test: Bait palatability monitoring; type: in vivo; set-up: key: maximum palatability rating of +++; settings: baits of Example 1; scale with maximum +++

SMILES	Bait Palatability
O=[N+]([O-])C=C1NCCN1Cc1cc(Cl)no1 [Compound No. 1]	+++
Cc1cc(CN2CCNC2=C[N+](=O)[O-])on1 [compound 3]	+++
O=[N+]([O-])C=C1NCCN1Cc1cc(C(F)(F)F)no1 [compound 4]	+++

The amount applied is not stated for every result.
